Assay results published in US7202046B2, “Use of a fluorescent protein for detecting interaction between a target protein and its ligand” (priority 1997, dated 2007).
Part of at least one peptide drawing is inferred or uncertain, most often the ends. Where a SMILES comes first, the peptide text is derived from it. [ ]: non-standard residue; d: D form.

Columns and labels:
[1] = molecular target: T1, wild-type NK2R receptor (Rattus norvegicus, UniProt P16610); test: Release of intracellular calcium (FURA 2), cells expressing pCEP4-NK2R WT; format: cell-based; conditions: antagonist (5 μM cyclopeptide) then 10 nM NKA
T1 construct: expressed in transfected cells; host or cells: HEK 293 cells, construct pCEP4-NK2R
T1 sequence (P16610 1-390): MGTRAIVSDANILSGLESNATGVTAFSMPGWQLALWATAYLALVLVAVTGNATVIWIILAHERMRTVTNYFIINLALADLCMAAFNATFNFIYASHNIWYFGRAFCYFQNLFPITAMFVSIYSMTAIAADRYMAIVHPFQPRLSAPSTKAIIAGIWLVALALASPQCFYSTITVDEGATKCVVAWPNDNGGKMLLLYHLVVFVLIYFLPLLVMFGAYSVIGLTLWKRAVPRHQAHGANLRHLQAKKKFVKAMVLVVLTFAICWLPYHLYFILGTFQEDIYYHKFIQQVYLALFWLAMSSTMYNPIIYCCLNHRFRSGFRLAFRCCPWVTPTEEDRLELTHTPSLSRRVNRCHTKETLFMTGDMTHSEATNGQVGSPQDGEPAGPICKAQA
Procedure: The fluorescent calcium-chelating agent, FURA 2 acetyl methyl ester (Molecular Probes), dissolved in DMSO is diluted to a concentration of 3 μM in 10 mM Hepes, 137.5 mM NaCl, 1.25 mM MgCl2, 1.25 mM CaCl2, 6 mM KCl, 5.6 mM glucose, 0.4 mM NaH2PO4, 0.1% (w/v) BSA, pH 7.4 buffer. The cell culture medium is aspirated and then replaced with 7 to 10 ml of FURA 2 AM solution. The cells are placed in the CO2 incubator for 45 min. The medium is then aspirated, replaced with FURA-free Hepes buffer and the cells are replaced in the CO2 incubator for a further 15 min. The buffer is aspirated and the cells are then collected after they have been detached from the dish with a 5 mM EDTA, PBS solution for 5 min. After centrifugation at 1000×g for 5 min., the cell pellet obtained is re-suspended at a rate of 1×10^6 cells/ml in Hepes buffer.
The calcium-release measurements are carried out at 37° C., in a spectrofluorimetiy tank containing a magnetic stirrer bar. The excitation wavelength is set at […] and the emission wavelength is set at 510 nm.

[2] = molecular target: T1, wild-type NK2R receptor; test: Displacement of 3H SR 48968 binding (competition experiment), HEK 293 cells expressing wild-type NK2R; conditions: read-out: KI, displacement of 3H SR 48968; 1 nM 3H SR 48968, 25,000 cells, 4° C.

## CC(C)[C@H](NC(=O)[C@@H](Cc1c[nH]c2ccccc12)NC(=O)[C@H](Cc1ccc(O)cc1)NC(=O)[C@@H](N)CC(=O)O)C(=O)N[C@H](Cc1c[nH]c2ccccc12)C(=O)N[C@H](Cc1c[nH]c2ccccc12)C(=O)N[C@@H](CCCCN)C(N)=O [MEN 10.376] (H-DY[dW]V[dW][dW]K-NH2; N-terminus and C-terminus assumed)
[1]
  inhibition of the NKA-elicited calcium response: inhibited
[2]
  Ki: 53 nM
